Results published in US20060094101A1.
No constants are given. Whether binding was seen depends on the method and setting. In cells and extracts the contact can be indirect. Some binding calls cover weakened binding; strength is not graded here. Where a sequence is shown, tags or fusion partners need not be part of it.

Chains of the proteins cited; added tags and fusions are not shown.
UniProt P49137: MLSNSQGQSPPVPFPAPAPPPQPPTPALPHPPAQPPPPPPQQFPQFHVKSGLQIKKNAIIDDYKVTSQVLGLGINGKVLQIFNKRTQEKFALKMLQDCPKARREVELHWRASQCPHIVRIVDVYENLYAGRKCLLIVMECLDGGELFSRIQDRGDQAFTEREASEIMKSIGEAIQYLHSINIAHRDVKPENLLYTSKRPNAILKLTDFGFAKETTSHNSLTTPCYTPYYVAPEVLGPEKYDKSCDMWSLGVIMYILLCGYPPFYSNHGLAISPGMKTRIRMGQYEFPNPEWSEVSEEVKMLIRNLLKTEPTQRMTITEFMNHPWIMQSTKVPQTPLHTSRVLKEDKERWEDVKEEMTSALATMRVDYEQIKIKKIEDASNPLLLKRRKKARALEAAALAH

What was measured:
MYC-tagged MK2 [1] = molecular target: MYC-tagged MK2 (UniProt P49137); assay: co-immunoprecipitation from 293T cells, IP anti-HA, blot anti-Myc
MYC-tagged MK2 [2] = molecular target: MYC-tagged MK2 (UniProt P49137); assay: co-immunoprecipitation from 293T cells, IP anti-HA, blot anti-Myc (FIG. 10B)

B1: HA-tagged HPH2 (protein, not shown: small tags and cut ends)
chain: MCLRGGCSPRAPAAAPQPRPPPALPPRPRAPVPASRPGRPLLTPARPCGRMRRGSPGPRLGGSRGERRRPAGRDPARVGPGQGLRRPARPGPAAWTETGQGIVHALTDLSIPGMTSGNGNSASSIAGTAPQNGENKPPQAIVKPQILTHVIEGFVIQEGADVSRWDARLLVGNLKKKYAQGFLPEKLPQQDHTTTTDSEMEEPYLQESKEEGAPLKLKCELCGRVDFAYKFKRSKRFCSMACAKRYNVGCTKRVGLFHSDRSKLQKAGAATHNRRRPAKPVCHHLPRIPRSSQQALCPFRLLLLCVTHSQEDSSRCSDNSSYEEPLSPISASSSTSAGDKASGTWSSPTCICGTWWAWDTTSCQVSHQVNVEDVYEFIRSLPGCQEIAEEFRAQEIDGQALLLLKEDHLMSVMNIKLGPALKIYARISMLKDS
MYC-tagged MK2 [1]
  binding: binds
MYC-tagged MK2 [2]
  binding: binds
